Data source: PubChem BioAssay AID652272 (Drosophila RNAi Screening Center, 2013)
The screen tested about 21,000 reagents; below is an unselected part of those that have a named target and a result. Of all reagents, 503 (2.4%) are marked active. 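Raw plate light values, not normalised; calls rest on replicate z-scores that were not deposited; hits include reporter decreases as well as increases.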 A plus sign joins genes that one reagent is predicted to hit. The record does not give: the amount of reagent, the time to read-out.

- Test: 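Genome-wide knock-down search for components of Hedgehog signalling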 (primary screen)
- System: Drosophila clone 8 (Cl8) cells
- Reagent: long dsRNA against Drosophila genes
- Measured: 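Plate reader light from a firefly reporter under a ptc promoter fragment that responds to Hedgehog, with Renilla light as transfection reference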
- Scale: firefly Hh reporter signal: higher = more ptc reporter light; Renilla reference signal: higher = more Renilla control light
- Active means: 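Called a hit if the two-replicate mean z-score lies below -2 or above +3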
- Calls: active = hit: reporter lowered or raised; inactive = not a hit

gene	amplicon	firefly Hh reporter signal, replicate 1	firefly Hh reporter signal, replicate 2	Renilla reference signal, replicate 1	Renilla reference signal, replicate 2	activity call
CG13488	DRSC04133	74530	63920	1286	5248	inactive
RhoGAP68F	DRSC10717	71112	32276	3437	1421	inactive
Mcm6	DRSC18680	67797	47685	1765	1002	inactive
Mtmr6	DRSC04046	81548	57063	2471	5030	inactive
CG3008	DRSC00560	92034	50379	2365	4800	inactive
CG14408	DRSC19595	1.10e5	64135	2645	1808	inactive
danr	DRSC14651	5.00e5	91641	25158	2882	inactive
Cpr78Ca	DRSC11651	1.49e5	1.26e5	5027	3401	inactive
Ankle2	DRSC20105	1.75e5	1.39e5	3612	3092	inactive
Ankle2	DRSC20106	79704	4.04e5	2080	14122	inactive
Golgin104	DRSC10459	66243	55254	2467	1399	inactive
CG44251	DRSC06856	92637	34544	2359	2813	inactive
CG1631	DRSC20535	41420	1.20e5	1337	5408	inactive
inv	DRSC07633	1.38e5	75986	3453	4745	inactive
CG10919	DRSC14283	62888	95648	2338	2840	inactive
Dhc36C	DRSC03315	1.34e5	72276	3681	7056	inactive
nocte	DRSC18123	71133	52681	2180	1492	inactive
CG6470	DRSC19994	1.22e5	68585	2869	1200	inactive
rdx	DRSC14526	43245	63321	1176	1936	inactive
rdx	DRSC16580	75010	1.15e5	1400	1956	active
CG43153	DRSC01189	6.22e5	2.49e5	31681	10100	inactive
CG33285	DRSC11463	1.76e5		3945		inactive
Pex14	DRSC11754	83977	1.09e5	3810	3818	inactive
Hr38	DRSC03345	58565	27125	1819	2773	inactive
CG14546	DRSC14890	5.59e5	86553	27831	6779	inactive
emp	DRSC04019	1.19e5	1.96e5	2841	8240	inactive
emp	DRSC04683	1.02e5	89654	4396	3473	inactive
CG34423 + Mthfs	DRSC04088	64361	53451	1573	4576	inactive
CG14416	DRSC18639	93328	2.19e5	3429	9168	inactive
Drep4	DRSC03408	1.18e5	59259	2759	6124	inactive
sut2	DRSC07701	83058	55785	3456	2513	inactive
Gr33a	DRSC02589	71309	40858	2032	3427	inactive
CG12099	DRSC08253	81280	73968	2160	5069	inactive
Tmtc2	DRSC00272	98842	87826	4825	4272	inactive
CG32240	DRSC08093	1.31e5	2.10e5	4000	9154	inactive
CG2898	DRSC18238	1.30e5	4.18e5	4512	14370	inactive
CG6048	DRSC18398	50725	1.05e5	1325	4976	inactive
CG15579	DRSC18067	93092	2.05e5	3444	7213	inactive
CG14778	DRSC17953	1.06e5	2.92e5	4429	11076	inactive
